Assay results: article PMC12040169 (PLOS Biology, 2025)
The list shows a part of the results.

Test system: T1, CTL2-GFP (C. trachomatis L2/434/Bu, GFP-expressing)
T1 construct: L2/434/Bu, GFP-expressing
Set-up: species or system HeLa; Intracellular C. trachomatis growth in HeLa cells, bulk GFP fluorescence relative to DMSO
Conditions: bulk GFP, single well; 28.5 h, 10 µM; inhibitor

First: Cc1nc2c(C(=O)NCCCOC(C)C)cnn2c(C)c1Cc1cccc(Cl)c1 [CBK162043]
Second: COc1cc(CNCCO)ccc1OCc1cccc(Cl)c1 [CBK270013C]
The “% of control remaining” value of the first is lower: 144.569% for the first, 145.679% for the second.

Compared with `Cc1cccc(-c2ncc(NC(=O)Cc3ccc(OC(F)(F)F)cc3)nc2-c2cccnc2)c1` [CBK037030], `COc1ccc(S(=O)(=O)NCCNC(=O)c2ccc(-c3cccc(Cl)c3Cl)nc2NCc2cccnc2)cc1` [CBK076436] is higher in “% of control remaining” value: 119.761% for the first, 122.835% for the second.

Going from `Cc1ccc(C)c(C2CCCN2C(=O)Cn2cccc(C(=O)NCc3ccccc3)c2=O)c1` (stereo not drawn) [CBK286062] to `Cc1ccc(S(=O)(=O)Cc2ccc(C(=O)N3CCN(Cc4ccccc4)CC3)cc2)cc1` [CBK269588], the “% of control remaining” value rises from 124.932% to 125.501%.

First: COc1cc(N)c2ncccc2c1 [CBK011972C]
Second: COc1cccc(COc2cncc(Cl)n2)c1OC [CBK176057]
The “% of control remaining” value of the first is lower: 0% for the first, 128.246% for the second.

Going from `O=[N+]([O-])c1ccccc1CN1CCC(N2CCCCC2)CC1` [CBK261852] to `Cc1ccc(C(=O)N2CCCN(C(=O)CN3CCCC3)C2)cc1` [CBK039081], the “% of control remaining” value rises from 101.984% to 103.46%.

First: Nc1ncncc1-c1noc([C@@H]2CCCN2C2CCOCC2)n1 [CBK288932]
Second: CC(C)Cc1noc(CN2CCC(C(=O)NCc3ccco3)CC2)n1 [CBK305995]
The “% of control remaining” value of the first is higher: 123.377% for the first, 83.2386% for the second.

Compared with `Cc1ccnc(SCC(=O)N2CCc3ccccc3C2)n1` [CBK288218], `Cn1c(=O)n(CC(=O)N2CCCc3ccccc32)c2cccnc21` [CBK283790] is higher in “% of control remaining” value: 119.466% for the first, 122.46% for the second.

Going from `CCOC(=O)c1ccc(-c2ccc(/C=C/c3nn4cnnc4c(O)c3[N+](=O)[O-])o2)cc1` [CBK268409] to `O=C(Nc1cc2nn(-c3ccccc3)nc2cc1Cl)c1ccc(-c2cccc([N+](=O)[O-])c2)o1` [CBK266271], the “% of control remaining” value rises from 117.402% to 206.392%.

Going from `Cc1cc(CN2CCC(C(=O)c3ccc(F)cc3)CC2)no1` [CBK149121] to `CC(NC(=O)C1CCN(CCOc2ccc(F)cc2)CC1)c1cccc2ccccc12` (stereo not drawn) [CBK148634], the “% of control remaining” value falls from 100% to 98.4313%.

First: CC(C)[C@@H](CO)Nc1cc(Cl)nc2ccnn12 [CBK037242]
Second: CN(C)CCNC(=O)c1cccc(-c2cc(N3CCCN(C)CC3)n3nccc3n2)c1 [CBK037143]
The “% of control remaining” value of the first is lower: 157.505% for the first, 157.726% for the second.

Going from `O=C1C2CCCCC2C(=O)N1c1ccc(Oc2ccc(Br)cc2)cc1` (stereo not drawn) [CBK263531] to `COc1ccc(C(=O)N2CCN(c3ccc(NC(=O)c4cccnc4)cc3)CC2)cc1` [CBK270200], the “% of control remaining” value rises from 78.468% to 145.844%.

Going from `O=C(NCCc1cccs1)Nc1cccc(SC(F)(F)F)c1` [CBK044999] to `CCCC(NC(=O)c1cccc(-n2cnnc2)c1)c1cccs1` (stereo not drawn) [CBK282745], the “% of control remaining” value falls from 102.945% to 99.2626%.

Compared with `Cc1ccc(Cc2cnc(NC(=O)C3CCOCC3)s2)cc1F` [CBK306130], `Cc1nc(-c2ccccc2)sc1C(=O)C1=C(O)C(=O)N(CCCN2CCOCC2)C1c1ccco1` (stereo not drawn) [CBK266476] is lower in “% of control remaining” value: 133.843% for the first, 96.7077% for the second.

First: COc1cccc(CNC23CC4CC(CC(C4)C2)C3)c1OCc1ccccc1 [CBK268873C]
Second: O=C(CC12CC3CC(CC(C3)C1)C2)NCC(=O)Nc1ccc2[nH]c(=O)[nH]c2c1 [CBK295349]
The “% of control remaining” value of the first is lower: 106.386% for the first, 143.577% for the second.

First: CCOC(=O)c1ccc(NC(=S)NCCN(CC)CC)cc1 [CBK018358]
Second: Cn1nnnc1SCC(=O)Nc1ccc(C(=O)O)cc1 [CBK267442]
The “% of control remaining” value of the first is higher: 130.256% for the first, 125.896% for the second.

Compared with `Cc1cc(COc2nccnc2N2CCN(Cc3ccc(C(C)C)cc3)CC2)no1` [CBK084186], `O=C(c1ccccc1CCc1ccccc1)N1CCN(Cc2ccc3c(c2)OCO3)CC1` [CBK268623] is lower in “% of control remaining” value: 168.069% for the first, 103.84% for the second.

First: CN(C(=O)C1CC1)c1nc2c(s1)CCc1c-2cnn1C [CBK281927]
Second: CN(C)[C@@H]1CN(C(=O)C2CC2)C[C@H]1c1cn(C)c2ccccc12 [CBK282681]
The “% of control remaining” value of the first is higher: 119.891% for the first, 107.518% for the second.

Going from `Cn1c(=O)[nH]c(=O)c2c1nc(SCCN1CCOCC1)n2CCCc1ccccc1` [CBK269234] to `COc1ccc(C(=O)C2=C(O)C(=O)N(CCN3CCOCC3)C2c2ccc(Cl)cc2)cc1` (stereo not drawn) [CBK264718], the “% of control remaining” value falls from 122.343% to 100%.

Compared with `O=C(c1cncnc1)N1CCC(Cn2cncn2)(C2CCCCC2)CC1` [CBK136823], `CCOC(=O)C1(C2CCCCC2)CCN(C(=O)c2cc[nH]c2)CC1` [CBK137103] is higher in “% of control remaining” value: 102.338% for the first, 145.754% for the second.

Going from `COc1ccc(S(=O)(=O)NC(C)C(=O)Nc2cc(Cl)ccc2OC)cc1` (stereo not drawn) [CBK269479] to `COc1ccc([C@@]23CC[C@@H](NC(=O)Nc4cccc(Br)n4)C[C@@H]2N(C)CC3)cc1OC` [CBK045703], the “% of control remaining” value falls from 112.339% to 97.5729%.

Going from `O=C1COc2ccccc2C/C=C/CC2(CCN(C(=O)c3n[nH]c4c3CCC4)CC2)CN1` [CBK292019] to `O=C(c1cccs1)N1CCC2(CC1)Nc1ccccc1-n1cccc12` [CBK283489], the “% of control remaining” value rises from 89.1359% to 101.931%.

First: Cc1[nH]c(=O)c(C#N)cc1C(=O)N(C)Cc1cc(-c2ccncc2)no1 [CBK306859]
Second: Cc1cc(Br)ccc1NC(=O)Cn1cnc2c1c(=O)n(C)c(=O)n2C [CBK133289]
The “% of control remaining” value of the first is lower: 90.3204% for the first, 116.032% for the second.

First: COc1cncc(C(NC(=O)c2ccc3c(c2)CCC3)[C@H]2C[C@H](O)C2)c1 (stereo partly drawn) [CBK307646]
Second: CN1CCC(N2CCN(C(=O)c3ccc(-c4ccc(S(C)(=O)=O)cc4)nc3)CC2)CC1 [CBK158862]
The “% of control remaining” value of the first is lower: 94.8681% for the first, 127.423% for the second.

Going from `CCOC(=O)CN1CCN(C(=O)Nc2ccccc2OC(F)(F)F)CC1` [CBK043656] to `O=C(O)CCC(=O)Nc1ccccc1C(=O)N1CCCCC1` [CBK266100], the “% of control remaining” value rises from 80.7085% to 100%.

Going from `CC(CCN1CCN(C)CC1)c1ccccc1` (stereo not drawn) [CBK261881] to `COc1ccccc1N1CCN(C(=O)c2c(Cl)cnn2C)CC1` [CBK288247], the “% of control remaining” value falls from 119.159% to 115.087%.

Compared with `O=C(O)COCCn1cc(-c2ccc(Cl)cc2)cn1` [CBK021914], `C=CCn1c(Cc2csc(NC(=O)Cc3ccc(Cl)cc3)n2)n[nH]c1=S` [CBK295359] is higher in “% of control remaining” value: 133.255% for the first, 141.35% for the second.

Compared with `Cc1nc(CCCn2cnc3ncccc3c2=O)sc1C` [CBK306953], `CC(=O)c1ccc(-c2nccnc2NCc2cccnc2)s1` [CBK037050] is higher in “% of control remaining” value: 104.865% for the first, 178.719% for the second.

First: CCCc1cc(-c2c(Cl)cccc2Cl)[nH]n1 [CBK107818]
Second: O=C(NC1CCCCCC1)c1[nH]nc(O)c1Cc1c(Cl)cccc1Cl [CBK107847]
The “% of control remaining” value of the first is lower: 98.4012% for the first, 123.586% for the second.

Going from `CC(C)c1nccn1CCC(=O)N1CCC(c2ccncc2)CC1` [CBK283512] to `CC[C@H]1CN(C(C)=O)CC[C@H]1CC(=O)Nc1nccs1` [CBK289130], the “% of control remaining” value rises from 81.9315% to 119.157%.

Going from `O=C(NCc1ccc2c(c1)OCO2)c1ccc2c(c1)C(=O)N(Cc1cccnc1)C2=O` [CBK267824] to `CC(C)(CO)CNc1nc(-c2ccc3c(c2)OCO3)cnc1N` [CBK063459], the “% of control remaining” value rises from 124.834% to 155.232%.

Going from `Cn1cc(CCO)c2ccccc21` [CBK081087] to `Cn1cc(C(C(=O)O)N2CCN(c3ccccc3)CC2)c2cc(C(=O)O)ccc21` (stereo not drawn) [CBK286627], the “% of control remaining” value falls from 111.137% to 94.109%.

Compared with `Nc1cccc(-c2nccnc2NCc2cccs2)c1` [CBK037537], `O=S(=O)([O-])CCC[n+]1c(/C=C/Nc2ccccc2)oc2ccc3ccccc3c21` [CBK261082] is lower in “% of control remaining” value: 113.279% for the first, 88.9893% for the second.

Going from `Cc1c(C(=O)N2CC(n3cc(C(C)(C)O)nn3)C2)sc2cccc(F)c12` [CBK306398] to `Cc1cc(C)cc(NC2=N[C@H]3[C@@H](O)[C@H](O)C[C@H](C(=O)N4CCCCC4)[C@H]3S2)c1` [CBK288952], the “% of control remaining” value falls from 152.45% to 125.577%.

Going from `COC(=O)c1ccsc1NS(=O)(=O)c1cc(Cl)sc1Cl` [CBK039062] to `CC1(C)CC(=O)c2sc(NS(=O)(=O)c3sc(Cl)cc3Br)nc2C1` [CBK200029], the “% of control remaining” value falls from 111.867% to 106.932%.

Going from `CCOc1c(OC)cc(C#N)cc1C(=O)O` [CBK269925] to `CCOc1cc(Cl)c(S(=O)(=O)NCCCN2CCOCC2)cc1Cl` [CBK268781], the “% of control remaining” value falls from 138.009% to 129.445%.

Going from `O=c1c(Oc2ccccc2Br)c(C(F)(F)F)oc2c(CN3CCCC3)c(O)ccc12` [CBK217827] to `COCc1cc(CC2(NCc3ccc(NC(C)=O)cc3)COC2)no1` [CBK289701], the “% of control remaining” value rises from 129.822% to 153.072%.

First: COCCn1c(=O)c2c(nc3oc(C(C)(C)C)cn32)n(C)c1=O [CBK307566]
Second: CSc1ccc(C(NC(=O)OC(C)(C)C)C(=O)O)cc1 (stereo not drawn) [CBK287196]
The “% of control remaining” value of the first is lower: 122.107% for the first, 133.228% for the second.

First: CC(C)NC(=O)NC[C@H]1C[C@@H]2CCN1C[C@@H]2c1cc(C2CCCC2)nn1C [CBK288744]
Second: CC(C)Nc1cc(OC2CCOC2)ncn1 (stereo not drawn) [CBK115888]
The “% of control remaining” value of the first is lower: 104.651% for the first, 115.076% for the second.

Compared with `O=S(=O)(O)CCCSc1nc2ccccc2o1` [CBK026507N], `Cc1cc(C23CC4CC(CC(C(=O)O)(C4)C2)C3)c(C)cc1C12CC3CC(CC(C(=O)O)(C3)C1)C2` [CBK261734] is lower in “% of control remaining” value: 107.126% for the first, 81.6925% for the second.
